## Library screen at single concentrations

The values are deposited in ChEMBL (CHEMBL3988442, “University of Dundee, Small-Polar-MMV Screening Library” (2021)).

Each number is a percent effect as filed. The controls that fix the scale are not given in the record; negative values are as filed. The compounds are a random part of those screened. Two or more numbers in one place are separate tests of the same structure; such repeats can differ widely.

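Phenotypic screen: M. tuberculosis growth, glucose 7H9 medium, 3 days; the read-out is not stated. Compounds at 50 µM. The record gives no direction; compounds that gave an IC50 in retests scored well above the rest, so higher reads as more growth inhibition. Size under these conditions: about 69,000 compounds, about 760 of them at 50% or above in at least one test.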

With CCCNc1ncc(CN2CCOC(Cc3cccc(F)c3)C2)cn1 (centres undefined) the screen gave -17.44%.
With NC(=O)c1cn[nH]c1C1CCCN1C(=O)c1ccccc1 (centres undefined) the screen gave -0.9043%.
With Cc1nc(N2CCCC2)nc2c1CCN(C(=O)N(C)C)CC2 the screen gave 28.46%.
With CCc1ccc(C(=O)N2CCN(CCS(C)(=O)=O)CC2)o1 the screen gave -9.313%.
With [H][C@@]12COC[C@]1(COCC1CC1)CN(C(=O)C1=CCCC1)C2 the screen gave 19.93%.
With O=C(O)C(F)(F)F.[H][C@@]12CCN(c3cnccn3)C[C@]1([H])CN(C(=O)c1cncn1C)C2 the screen gave -10.37%.
With CCN1CCOC(CNCc2c(Cl)nc3ccccn23)C1 (centres undefined) the screen gave 35.91%.
With Nc1nnnn1NCc1cccc2ccccc12 the screen gave 29.6%.
With CCn1c(SCC(=O)O)nnc1C(C)NC(=O)c1ccc(Cl)cc1 (centres undefined) the screen gave -26.49%.
With [H][C@]12CCN(C(C)=O)[C@@]1([H])CC[C@H](COCC(=O)N1CCCC1)O2 the screen gave -47.62%.
With Cn1cc(C2COC3(CCN(C(=O)Cn4cccn4)CC3)C2)cn1 (centres undefined) the screen gave -22.68%.
With Cc1cccc(CN2C(=O)CCC23CCN(Cc2cccn2C)CC3)n1.O=C(O)C(F)(F)F.O=C(O)C(F)(F)F the screen gave -21.49%.
With CC(C)c1nn(C)c(N(C)C)c1CNCc1ccnc(N(C)C)c1 the screen gave -20.33%.
With NC(=O)CN1CCC(C(=O)NCc2nc(-c3ccc(F)cc3)cs2)CC1 the screen gave 6.403%.
With CN(C)Cc1ccccc1NC(=O)c1ccc(C#N)cc1 the screen gave 15.84%.
With Cc1nc2c(c(N(C)C)n1)CCN(C(=O)c1sccc1S(N)(=O)=O)C2 the screen gave -19.78%.
With [H][C@@]12CN(C(=O)c3ccnnc3)C[C@]1([H])CN(c1ncccn1)C2 the screen gave -49.8% and -13.04%.
With CN(C1CCN(c2ccccn2)CC1)S(=O)(=O)N1CCOCC1 the screen gave 2.185%.
With COc1cccc(S(=O)(=O)N2C[C@H](OC)[C@]3(CCCO3)C2)c1 the screen gave 5.17%.
With Cc1ccccc1-c1noc(CNc2ccc(F)cc2OCCO)n1 the screen gave 10.4%.
With CNS(=O)(=O)CC(=O)N(C1CC1)C1Cc2ccccc2C1 the screen gave 5.215% and -11.04%.
With NC(=O)C1CCN(C(=O)c2cccc(OCc3cscn3)c2)CC1 the screen gave -12.76%.
With OC1(CNC2CCN(Cc3ccncc3)CC2)CCc2ccccc21 (centres undefined) the screen gave 16.68%.

2 of the entries, repeated:

| Compound | Percent Effect |
|---|---|
| `[H][C@@]12COC[C@]1(COCC1CC1)CN(C(=O)C1=CCCC1)C2` | 19.93% |
| `CN(C)Cc1ccccc1NC(=O)c1ccc(C#N)cc1` | 15.84% |